Assay: general procedure: solution-phase peptide synthesis
Conditions: coupling step, HCl salt

Substance: HCl.H-Gly-Gly-Val-Leu-Val-Gln-Pro-Gly-OH
- step yield: 80%

From patent US9051349B2 (Alba Therapeutics Corp., priority 2007, dated 2015)
